In patent US10570150B2, “6,7-trans cephalosporin-based probes for detecting bacteria expressing a metallo-beta-lactamase” (priority 2014, dated 2020):
Some results were stated once for a whole list of compounds, not compound by compound.

Protein sequences, listed by entry. Tags and fused reporters are not part of them. Residues count along the entry.
UniProt Q9F663, 25-293 H272Y: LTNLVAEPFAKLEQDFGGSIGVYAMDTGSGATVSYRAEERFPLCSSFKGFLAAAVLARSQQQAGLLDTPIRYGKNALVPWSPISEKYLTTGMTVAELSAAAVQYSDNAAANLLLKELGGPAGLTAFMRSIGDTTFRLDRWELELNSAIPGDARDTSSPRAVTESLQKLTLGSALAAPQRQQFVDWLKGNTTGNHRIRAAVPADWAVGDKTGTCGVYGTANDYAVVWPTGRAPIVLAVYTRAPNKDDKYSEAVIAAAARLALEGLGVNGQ

Legend:
[1] = tested on: VIM-27; assay: Fluorescence of probes after incubation with recombinant VIM-27; assay type: biochemical, Klebsiella pneumoniae; conditions: probe 10 μM, 2 h
Description: The fluorescence of the probes was measured before and after enzyme treatment using enzyme concentrations in the range of about 1 to about 200 fmols. […] CDC-1, a previously reported non-specific probe for β-lactamases employed as a positive control, as described by Xie et al., (2012) J. Nat.

[2] = molecular target: KPC-3 (Klebsiella pneumoniae, UniProt Q9F663, H272Y); assay type: biochemical; conditions: probe 10 μM, 2 h

Row | Compound | amount of enzyme giving detectable fluorescence [1] [fmol] | amount of enzyme giving detectable fluorescence [2] [fmol]
1 | CO[C@H]1C(=O)N2C(C(=O)O)=C(COc3ccc4ccc(=O)oc4c3)CS[C@H]12 [(s)-CC-1, (6R,7S)-7-methoxy-8-oxo-3-(((2-oxo-2H-chromen-7-yl)oxy)methyl)-5-thia-1-azabicyclo[4.2.0.]oct-2-ene-2-carboxylic Acid] | ≤ 1 | ≤ 1
2 | O=C(O)C1=C(COc2ccc3ccc(=O)oc3c2)CS[C@@H]2[C@@H](OCc3ccccc3)C(=O)N12 [(s)-CC-5, (6R,7S)-7-(benzyloxy)-8-oxo-3-(((2-oxo-2H-chromen-7-yl)oxy)methyl)-5-thia-1-azabicyclo[4.2.0]oct-2-ene-2-carboxylic Acid] | ≤ 1 | ≤ 1
